Where two headings read alike, the source gives them in different places. These are yes or no findings as the source states them, for the method shown. In cells and extracts the contact can be indirect. Some binding calls cover weakened binding; strength is not graded here. One block for each molecule: values may come before it.
Key:
[1] = target: T1, KIFC3 (mouse (endogenous in ovaries)) (UniProt O35231); experiment: co-IP; anti-KIFC3 antibody on Dynabeads Protein G, supernatant of lysate of 10 mouse ovaries, overnight at 4 °C; IgG as control antibody; precipitates analysed by western blotting
T1 sequence: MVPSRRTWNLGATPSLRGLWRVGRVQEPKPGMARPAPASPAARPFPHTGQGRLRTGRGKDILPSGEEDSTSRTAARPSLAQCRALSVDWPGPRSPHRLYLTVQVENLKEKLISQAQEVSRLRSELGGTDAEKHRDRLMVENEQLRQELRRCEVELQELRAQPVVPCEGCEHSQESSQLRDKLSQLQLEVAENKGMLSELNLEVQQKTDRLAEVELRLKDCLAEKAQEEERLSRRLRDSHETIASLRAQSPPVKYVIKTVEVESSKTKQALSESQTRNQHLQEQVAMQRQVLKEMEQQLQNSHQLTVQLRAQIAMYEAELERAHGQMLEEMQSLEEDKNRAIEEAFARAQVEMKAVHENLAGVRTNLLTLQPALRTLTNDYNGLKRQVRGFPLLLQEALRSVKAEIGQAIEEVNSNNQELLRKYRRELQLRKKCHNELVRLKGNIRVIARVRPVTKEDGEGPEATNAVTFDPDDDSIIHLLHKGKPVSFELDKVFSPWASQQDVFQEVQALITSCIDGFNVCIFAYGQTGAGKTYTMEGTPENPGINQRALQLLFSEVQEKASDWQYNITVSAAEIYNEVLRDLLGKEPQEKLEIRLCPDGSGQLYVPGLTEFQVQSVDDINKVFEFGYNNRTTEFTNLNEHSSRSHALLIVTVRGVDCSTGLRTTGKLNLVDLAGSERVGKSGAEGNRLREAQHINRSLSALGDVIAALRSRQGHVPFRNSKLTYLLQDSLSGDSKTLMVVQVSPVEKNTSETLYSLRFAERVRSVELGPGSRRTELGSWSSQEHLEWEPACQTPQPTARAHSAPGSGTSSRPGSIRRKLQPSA

Sequences of proteins named here, by UniProt entry; tags and fusion partners are left off.
UniProt Q9WVA3: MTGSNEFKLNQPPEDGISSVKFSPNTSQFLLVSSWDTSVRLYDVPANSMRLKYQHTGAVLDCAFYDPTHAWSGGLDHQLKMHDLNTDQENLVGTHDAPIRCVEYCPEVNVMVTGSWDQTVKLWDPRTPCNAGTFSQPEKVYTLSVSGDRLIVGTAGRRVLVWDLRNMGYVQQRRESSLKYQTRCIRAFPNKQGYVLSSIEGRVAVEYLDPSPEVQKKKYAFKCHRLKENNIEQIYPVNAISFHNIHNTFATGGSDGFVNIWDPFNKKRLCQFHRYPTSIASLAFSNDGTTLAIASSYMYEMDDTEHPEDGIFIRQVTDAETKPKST

[2] = target: T1, KIFC3 (mouse (endogenous in ovaries)); experiment: as above; remark: listed apart in the source

binding [1]: binds
Molecule: Bub3 (from UniProt Q9WVA3 1-326)

binding [2]: binds
B1: PRC1 (protein, UniProt Q99K43 1-603)
chain: MRRSEVLADESITCLQKALTHLREIWELIGIPEEQRLQRTEVVKKHIKDLLDRMIAEEESLRERLLKSISICQKELSTLCSELQVKPFQEEKDTTILQLEKDLRTQVELMRKQKKERKQELKLLQEQEQELRDILCMPPCDVDSTSVPTLEELKLFRQRVATLRETKESRREEFVNIKKQIILCMEELEHSPDTSFERDVVCEDESAFCLSLENIATLQKLLKQLEMKKSQNEAECEGLRTQIRELWDRLQIPEEEREPVEAIMTGSKTKIRNALKLEVDRLEELKMQNIKQVIEKIRVELAQFWDQCFYSQEQRQAFAPYYSEDYTENLLHLHDAEIVRLRNYYDVHKELFQGVQKWEESWKLFLEFERKASDPGRFTNRGGNLLKEEKERAKLQKTLPKLEEELKARIEQWEQEHSTAFVVNGQKFMEYVTEQWELHRLEKERAKQERQLKNKKQTEAEMLYGSTPRTPSKRPGQTPKKSGKMNTTTMSSATPNSSIRPVFGGSVYRSPMSRLPPSGSKSVVTSLCSGKKTPRAAQLRANKENLDLNGSILSGGYPGSTPLQHNCSIKSVASTYSEFSRELSKASRSDATSRILNSTNIQS

From publication PMC10979585
